Measurements taken from article PMC9778607.
Results are given in words; binding and its absence hold for the method and conditions named. Binding seen in cells or lysates may run through a third protein. Some results given as binding are weak or reduced against the parent protein; the word gives no strength. For some assays here: Where a sequence is shown, tags or fusion partners need not be part of it.

Sequences of proteins named here, by UniProt entry; tags and fusion partners are left off. Residues count along the entry.
UniProt O75460, residues 19-977: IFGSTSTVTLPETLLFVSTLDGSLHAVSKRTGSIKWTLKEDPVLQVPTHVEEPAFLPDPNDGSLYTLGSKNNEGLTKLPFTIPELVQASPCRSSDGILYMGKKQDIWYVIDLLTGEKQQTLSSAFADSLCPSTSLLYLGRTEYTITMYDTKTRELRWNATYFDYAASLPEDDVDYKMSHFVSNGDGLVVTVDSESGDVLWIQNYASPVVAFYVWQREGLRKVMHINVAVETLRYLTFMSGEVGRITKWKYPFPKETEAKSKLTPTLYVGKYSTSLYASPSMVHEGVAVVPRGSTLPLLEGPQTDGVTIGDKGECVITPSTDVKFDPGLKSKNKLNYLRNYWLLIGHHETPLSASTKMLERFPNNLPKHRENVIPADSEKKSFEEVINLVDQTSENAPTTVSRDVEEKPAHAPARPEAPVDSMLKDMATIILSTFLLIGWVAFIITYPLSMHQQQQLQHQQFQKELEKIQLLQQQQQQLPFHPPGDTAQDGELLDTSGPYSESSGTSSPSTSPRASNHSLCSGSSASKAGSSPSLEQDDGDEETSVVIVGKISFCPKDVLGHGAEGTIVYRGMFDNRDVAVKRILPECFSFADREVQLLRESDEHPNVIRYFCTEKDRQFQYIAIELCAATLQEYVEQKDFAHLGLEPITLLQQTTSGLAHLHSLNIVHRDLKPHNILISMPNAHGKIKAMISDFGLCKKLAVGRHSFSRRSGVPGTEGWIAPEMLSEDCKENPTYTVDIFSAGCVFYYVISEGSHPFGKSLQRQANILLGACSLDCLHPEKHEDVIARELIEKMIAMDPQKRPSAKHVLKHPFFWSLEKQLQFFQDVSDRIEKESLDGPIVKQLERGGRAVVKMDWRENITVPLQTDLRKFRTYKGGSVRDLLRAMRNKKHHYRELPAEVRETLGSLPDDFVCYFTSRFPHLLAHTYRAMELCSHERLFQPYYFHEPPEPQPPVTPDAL

What was measured:
[1] = target: T1, V5-tagged EBI3 (ectopic, from pEF6-EBI3-V5) (human) (UniProt Q14213); assay: co-IP; MSCs in monolayer transfected with pEF6-EBI3-V5 for 48 hrs, then IL-1β for 24 hrs; anti-V5-tag pAb-agarose with 100 μg protein in 100 μl lysis buffer, 2 hours at 4°C; Western blotting for IRE1α and EBI3
T1 sequence: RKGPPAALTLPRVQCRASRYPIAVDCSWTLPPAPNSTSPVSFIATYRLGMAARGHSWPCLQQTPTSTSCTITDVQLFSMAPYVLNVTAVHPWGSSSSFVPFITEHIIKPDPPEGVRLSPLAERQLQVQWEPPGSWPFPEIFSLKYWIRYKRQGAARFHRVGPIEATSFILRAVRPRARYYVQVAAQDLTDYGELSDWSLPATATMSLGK

[2] = target: T2, Epstein–Barr virus-induced gene 3 (EBI3), endogenous in human MSCs (human (endogenous in human bone marrow-derived MSCs)) (UniProt Q14213); assay: co-IP; lysate of MSC pellets at day 2 of chondrogenesis; EBI3 antibody overnight at 4°C, protein A agarose 2 hours; Western blotting and CBB to detect p62
T2 sequence: T1 sequence

binding [1]	binding [2]	Substance
no binding	–	inositol-requiring enzyme 1 α (IRE1α) (from UniProt O75460 19-977)
–	binds	p62 (EBI3-associated protein) (from UniProt Q13501 1-440)
